Experiment in all cases: glycan array binding signal (z-score within array); higher = stronger binding
Common to all, as to details: glycan notation: IUPAC condensed, linker removed

Assay [1] addresses Gal(b1-4)GlcNAc(b1-2)Man(a1-6)[GlcNAc(b1-2)Man(a1-3)]Man(b1-4)GlcNAc(b1-4)GlcNAc. The method in brief:
(§1)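 Columns mapping to the same glycan were averaged after glycan names were converted to IUPAC-condensed notation. The data come from 3228 arrays in the Consortium for Functional Glycomics database, limited to those with an available protein sequence. Binding is reported as a within-array Z-score averaged across arrays of one protein sequence and across linkers.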

Assay [2] deals with Gal(b1-4)GlcNAc(b1-2)Man(a1-6)[Man(a1-3)]Man(b1-4)GlcNAc(b1-4)GlcNAc. The essentials:
as §1

The target of assay [3] is Gal(b1-4)GlcNAc(b1-2)[Gal(b1-4)GlcNAc(b1-4)]Man(a1-3)[Gal(b1-4)GlcNAc(b1-2)Man(a1-6)]Man(b1-4)GlcNAc(b1-4)GlcNAc. The essentials: as §1
Assay [4] concerns the target Gal(b1-4)GlcNAc(b1-2)[Gal(b1-4)GlcNAc(b1-4)]Man(a1-3)[Gal(b1-4)GlcNAc(b1-2)[Gal(b1-4)GlcNAc(b1-6)]Man(a1-6)]Man(b1-4)GlcNAc(b1-4)GlcNAc. The essentials:
as §1

Assay [5] has as its target Gal(b1-4)GlcNAc(b1-2)[Gal(b1-4)GlcNAc(b1-4)]Man(a1-3)[GlcNAc(b1-4)][Gal(b1-4)GlcNAc(b1-2)Man(a1-6)]Man(b1-4)GlcNAc(b1-4)GlcNAc. The essentials:
as §1

Assay [6] concerns the target Gal(b1-4)GlcNAc(b1-2)[Gal(b1-4)GlcNAc(b1-4)]Man(a1-3)[GlcNAc(b1-4)][Gal(b1-4)GlcNAc(b1-2)[Gal(b1-4)GlcNAc(b1-6)]Man(a1-6)]Man(b1-4)GlcNAc(b1-4)GlcNAc. The essentials: as §1
Assay [7] concerns the target Gal(b1-4)GlcNAc(b1-2)[Gal(b1-4)GlcNAc(b1-6)]Man(a1-6)[Gal(b1-4)GlcNAc(b1-2)Man(a1-3)]Man(b1-4)GlcNAc(b1-4)GlcNAc. The method in brief:
as §1

Assay [8] has as its target Gal(b1-4)GlcNAc(b1-2)[Gal(b1-4)GlcNAc(b1-6)]Man(a1-6)[Gal(b1-4)GlcNAc(b1-2)Man(a1-3)]Man(b1-4)GlcNAc(b1-4)[Fuc(a1-6)]GlcNAc. The essentials: as §1
The target in assay [9] is Gal(b1-4)GlcNAc(b1-2)[Gal(b1-4)GlcNAc(b1-6)]Man(a1-6)[GlcNAc(b1-4)][Gal(b1-4)GlcNAc(b1-2)Man(a1-3)]Man(b1-4)GlcNAc(b1-4)GlcNAc. The essentials: as §1
Assay [10] deals with Gal(b1-4)GlcNAc(b1-2)[Gal(b1-4)GlcNAc(b1-6)]Man(a1-6)[GlcNAc(b1-4)][Gal(b1-4)GlcNAc(b1-2)[Gal(b1-4)GlcNAc(b1-4)]Man(a1-3)]Man(b1-4)GlcNAc(b1-4)[Fuc(a1-6)]GlcNAc. The essentials: as §1
Assay [11] concerns the target Gal(b1-4)GlcNAc(b1-3)Gal(b1-3)GalNAc. The method in brief: as §1
For assay [12], the target named is Gal(b1-4)GlcNAc(b1-3)Gal(b1-3)GlcNAc. The method in brief: as §1
The target of assay [13] is Gal(b1-4)GlcNAc(b1-3)Gal(b1-4)Glc. The method in brief:
as §1

Assay [14] deals with Gal(b1-4)GlcNAc(b1-3)Gal(b1-4)GlcNAc. The method in brief: as §1
In assay [15] the target is Gal(b1-4)GlcNAc(b1-3)Gal(b1-4)GlcNAc(b1-2)Man(a1-3)[Gal(b1-4)GlcNAc(b1-3)Gal(b1-4)GlcNAc(b1-2)Man(a1-6)]Man(b1-4)GlcNAc(b1-4)GlcNAc. The essentials: as §1
Assay [16] addresses Gal(b1-4)GlcNAc(b1-3)Gal(b1-4)GlcNAc(b1-2)Man(a1-3)[Gal(b1-4)GlcNAc(b1-3)Gal(b1-4)GlcNAc(b1-2)Man(a1-6)]Man(b1-4)GlcNAc(b1-4)[Fuc(a1-6)]GlcNAc. The method in brief: as §1
For assay [17], the target named is Gal(b1-4)GlcNAc(b1-3)Gal(b1-4)GlcNAc(b1-2)[Gal(b1-4)GlcNAc(b1-3)Gal(b1-4)GlcNAc(b1-6)]Man(a1-6)[Gal(b1-4)GlcNAc(b1-3)Gal(b1-4)GlcNAc(b1-2)Man(a1-3)]Man(b1-4)GlcNAc(b1-4)GlcNAc. The essentials:
as §1

Assay [18] deals with Gal(b1-4)GlcNAc(b1-3)Gal(b1-4)GlcNAc(b1-2)[Gal(b1-4)GlcNAc(b1-3)Gal(b1-4)GlcNAc(b1-6)]Man(a1-6)[Gal(b1-4)GlcNAc(b1-3)Gal(b1-4)GlcNAc(b1-2)Man(a1-3)]Man(b1-4)GlcNAc(b1-4)[Fuc(a1-6)]GlcNAc. The method in brief:
as §1

This is one part of the list.

B1: DC-Sign-R (Homo sapiens), Q9H2X3 (protein)
chain: MSDSKEPRVQQLGLLEEDPTTSGIRLFPRDFQFQQIHGHKSSTGCLGHGALVLQLLSFMLLAGVLVAILVQVSKVPSSLSQEQSEQDAIYQNLTQLKAAVGELSEKSKLQEIYQELTQLKAAVGELPEKSKLQEIYQELTRLKAAVGELPEKSKLQEIYQELTRLKAAVGELPEKSKLQEIYQELTRLKAAVGELPEKSKLQEIYQELTELKAAVGELPEKSKLQEIYQELTQLKAAVGELPDQSKQQQIYQELTDLKTAFERLCRHCPKDWTFFQGNCYFMSNSQRNWHDSVTACQEVRAQLVVIKTAEEQNFLQLQTSRSNRFSWMGLSDLNQEGTWQWVDGSPLSPSFQRYWNSGEPNNSGNEDCAEFSGSGWNDNRCDVDNYWICKKPAACFRDE
On to B1, for which the “glycan array binding signal (z-score)” value in assay [1] was 0.399; in assay [2], 3; in assay [3], -0.804; in assay [4], -0.156; in assay [5] it was -0.27; in [6], -0.555. In addition, the “glycan array binding signal (z-score)” value in [7] was -0.33; in [8] it was -0.401; in assay [9] it was -0.77; in [10], -0.442; in assay [11] it was 0.359; in assay [12] it was -0.694. For the same molecule, the “glycan array binding signal (z-score)” value in [13] was -0.514; in [14] it was -0.11; in assay [15] it was 0.398; in [16], -0.365; in [17] it was 3.03; in assay [18] it was -0.226.

Values taken from the supplement of paper PMC8728848.
